Reference: patent publication US5264586A, “Analogs of calicheamicin gamma1I, method of making and using the same” (priority 1992, dated 1993)
For at least one compound, name, drawing or mass did not settle the structure.

Test system: H-322 (lung carcinoma)
Test: Sulforhodamine B cytotoxicity assay, H-322
Type: cell-based
Conditions: 72 hours, SRB
Method: Sulfurodamine B Cytotoxicity Assay
Cytotoxicity assays using (-)-calicheamicinone were carried out as follows:
1. Preparation of target cells in 96-well plates
g. Adjust volume of cell suspension with T.C. media to give a density of 1×10^5 cells/mL.
j. Incubate plates for 24 hours at 37° C., 5-10 percent CO2 in a humidified incubator.
a. Stock drug solutions were prepared by dissolving drug in the appropriate solvent (determined during chemical characterization studies) and sterile filtering the drug-solvent solution through a sterile 0.2 μ filter unit. An aliquot was taken from each filtered drug solution and the O.D. was measured to determine the drug concentration.
b. Dilute the stock drug solution prepared above with T.C. medium to the desired initial concentration (10^-2 -10^-4 M). A minimum volume of 220 μL of diluted drug is required per 96-well plate used in the assay.
b. Add 100 μL of the initial compound dilution to adjacent duplicate wells in Columns #2. (Four materials can be tested in duplicate per 96-well plate.)
d. Transfer 10 μL to the appropriate wells in Column #4 and continue to make 1:10 dilutions of compound across the plate through Column #12.
f. […]
g. Read plates on a microtiter plate reader at […].
IC50 values; i.e., the concentration of Compound required to kill one-half of the treated cells, were then calculated. […]

`COC(=O)NC1=C2/C(=C\CSSSC)[C@](O)(C#C/C=C\C#C[C@@H]2O)CC1=O` [(-)-calicheamicinone, (-)-Calicheamicinone] was tested, and the IC50 was 25 µM.
